The target of one data set is GST-GmNSP1a (UniProt A0A2P0P9P4). The data set can be described thus: EMSA. The settings on record: EMSA: LightShift Chemiluminescent EMSA Kit (Pierce), 5' biotin probe, 200-fold unlabeled competitor, recombinant protein, residues 1-543, protein details: GST (N-term, pGEX-4T-1), label: 5' biotin. On the technique in general: A gel shift assay detects complexes by their altered migration in electrophoresis.

In data set [1] the test system is MBP-GmRR11d (Glycine max). The data set can be described thus: EMSA / DNA pull-down. The note with it: EMSA: LightShift Chemiluminescent EMSA Kit (Pierce), 5' biotin probe, 200-fold unlabeled competitor; recombinant protein; protein details: MBP (N-term, pMAL-c2X); label: 5' biotin.

The exact form of at least one protein or probe is not confirmed. For part of these data: A weaker result is weaker than the reference pair of the same experiment. At least one verdict rests on a figure or table, not on a statement of the authors.

Consider “TATAATTACAATTTTTCAAAAGCTATAATTTTAAAATAAC (double strand) [GmNSP1a probe 1 (GmNIN1a promoter)]”, for which the binding result with GST-GmNSP1a was “binds”; with GST-GmNSP1a (plus GmRR11d), “binds more weakly”.

Consider “GTGTTAGTTTTTTAAATTTGATTTGAACTTTTTA (double strand) [GmNSP1a probe 2 (GmNIN1a promoter)]”, for which the binding result with GST-GmNSP1a is reported as “binds”; in the data set with GST-GmNSP1a (plus GmRR11d) it was “binds more weakly”.

In the case of “CGTGGTATCAACTTGGGATTAGGATGACAGAGTGC (double strand) [GmRR11d probe 1 (GmNIN1a promoter)]”, the binding result in data set [1] is given as “binds”.

As to “TTCAAAAAATCTGTAGGATTGCCACGTGGAACATG (double strand) [GmRR11d probe 2 (GmNIN1a promoter)]”, in data set [1], the binding result was “binds”.

Source of the values: article PMC9741591.
